This is one part of the list.
Legend:
Experiment in all cases: log2 fold change, soluble protein after heating vs DMSO (PISA); higher = thermal stabilisation; K562 lysate, 10 uM; active = over 0.2 and 3.5 SD of the protein, either way, in both replicates (recomputed)
nilotinib = compound: Cc1cn(-c2cc(NC(=O)c3ccc(C)c(Nc4nccc(-c5cccnc5)n4)c3)cc(C(F)(F)F)c2)cn1 [nilotinib]
Method in brief: (§1)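 To prepare the extract, K562 pellets were dounce-homogenised in PBS pH 7.4 with 1 mM MgCl2, giving crude material at 1 mg/mL protein. This was treated with 10 μM compound for 30 min, then heated in aliquots for 3 min over 48°C-58°C before pooling and addition of NP-40 to 0.5% at 4°C. Centrifugation at 21,000xg for 90 min left soluble protein in the supernatant, which TMTpro 16plex LC-MS/MS quantified with equalised channel sums. Results are log-two fold changes in thermal stability compared with solvent controls, from duplicates.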

Sequences of proteins named here, by UniProt entry; tags and fusion partners are left off. A change or cut given only in a name is not applied to a line headed by its entry.
UniProt Q7L5N7: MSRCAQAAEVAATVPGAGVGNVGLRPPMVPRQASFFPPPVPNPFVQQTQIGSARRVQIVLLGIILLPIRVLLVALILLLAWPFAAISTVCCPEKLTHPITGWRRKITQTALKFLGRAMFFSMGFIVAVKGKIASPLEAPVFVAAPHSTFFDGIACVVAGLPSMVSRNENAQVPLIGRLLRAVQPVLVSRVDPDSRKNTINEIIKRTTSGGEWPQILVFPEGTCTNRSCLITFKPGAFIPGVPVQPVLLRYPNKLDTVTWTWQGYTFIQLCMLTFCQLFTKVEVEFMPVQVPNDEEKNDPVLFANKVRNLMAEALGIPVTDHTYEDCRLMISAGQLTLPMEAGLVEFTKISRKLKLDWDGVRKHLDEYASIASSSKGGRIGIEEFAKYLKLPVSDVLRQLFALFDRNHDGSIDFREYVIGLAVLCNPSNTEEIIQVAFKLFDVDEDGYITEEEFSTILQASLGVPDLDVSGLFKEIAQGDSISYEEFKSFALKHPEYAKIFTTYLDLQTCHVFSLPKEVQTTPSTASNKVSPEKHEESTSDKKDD
UniProt Q9Y546: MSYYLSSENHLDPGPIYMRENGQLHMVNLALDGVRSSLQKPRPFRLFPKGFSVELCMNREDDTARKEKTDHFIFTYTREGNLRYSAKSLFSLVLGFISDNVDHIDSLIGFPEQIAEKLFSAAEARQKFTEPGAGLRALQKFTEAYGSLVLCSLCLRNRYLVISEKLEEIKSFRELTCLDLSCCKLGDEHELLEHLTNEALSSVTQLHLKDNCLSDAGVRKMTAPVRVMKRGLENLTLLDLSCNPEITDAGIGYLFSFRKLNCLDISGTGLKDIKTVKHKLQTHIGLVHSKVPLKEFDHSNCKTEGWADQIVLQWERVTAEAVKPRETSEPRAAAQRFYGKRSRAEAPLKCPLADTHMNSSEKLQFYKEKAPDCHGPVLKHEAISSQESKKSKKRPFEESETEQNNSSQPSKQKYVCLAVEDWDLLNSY
UniProt Q6UWE0: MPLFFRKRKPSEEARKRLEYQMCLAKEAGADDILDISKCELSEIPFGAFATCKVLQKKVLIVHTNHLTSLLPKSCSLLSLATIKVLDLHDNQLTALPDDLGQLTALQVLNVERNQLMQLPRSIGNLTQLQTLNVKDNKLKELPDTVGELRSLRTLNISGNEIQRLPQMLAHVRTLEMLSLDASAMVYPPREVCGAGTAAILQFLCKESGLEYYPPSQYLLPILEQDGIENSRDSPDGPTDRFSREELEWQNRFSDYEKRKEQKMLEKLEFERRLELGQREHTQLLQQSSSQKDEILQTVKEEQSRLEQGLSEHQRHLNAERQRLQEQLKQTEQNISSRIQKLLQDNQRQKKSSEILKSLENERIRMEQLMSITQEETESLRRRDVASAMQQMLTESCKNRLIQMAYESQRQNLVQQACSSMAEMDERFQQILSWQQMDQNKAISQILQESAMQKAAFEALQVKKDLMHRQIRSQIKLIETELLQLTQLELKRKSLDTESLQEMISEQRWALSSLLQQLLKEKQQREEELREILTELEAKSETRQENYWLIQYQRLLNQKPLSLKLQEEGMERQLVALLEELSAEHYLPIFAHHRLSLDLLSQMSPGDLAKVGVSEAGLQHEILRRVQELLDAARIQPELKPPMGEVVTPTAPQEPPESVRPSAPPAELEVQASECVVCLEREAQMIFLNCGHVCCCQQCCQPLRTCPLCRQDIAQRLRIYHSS
UniProt Q5SW96: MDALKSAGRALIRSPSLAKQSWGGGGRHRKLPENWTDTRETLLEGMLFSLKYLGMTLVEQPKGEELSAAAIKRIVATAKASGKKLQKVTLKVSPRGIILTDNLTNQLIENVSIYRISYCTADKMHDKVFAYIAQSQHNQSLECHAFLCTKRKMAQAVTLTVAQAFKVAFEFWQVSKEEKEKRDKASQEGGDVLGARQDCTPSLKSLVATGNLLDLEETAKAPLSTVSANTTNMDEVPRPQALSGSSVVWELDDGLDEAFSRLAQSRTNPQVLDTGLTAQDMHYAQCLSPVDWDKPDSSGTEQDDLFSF
UniProt Q6P5S2: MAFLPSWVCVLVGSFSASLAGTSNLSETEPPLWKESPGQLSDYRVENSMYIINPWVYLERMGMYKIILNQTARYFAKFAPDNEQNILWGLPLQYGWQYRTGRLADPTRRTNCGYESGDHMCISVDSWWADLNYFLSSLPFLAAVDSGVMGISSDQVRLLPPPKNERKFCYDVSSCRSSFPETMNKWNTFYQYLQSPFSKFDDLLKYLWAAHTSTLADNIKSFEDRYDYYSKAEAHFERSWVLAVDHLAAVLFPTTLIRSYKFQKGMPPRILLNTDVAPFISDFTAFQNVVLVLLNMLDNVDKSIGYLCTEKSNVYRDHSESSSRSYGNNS
UniProt Q8NF37: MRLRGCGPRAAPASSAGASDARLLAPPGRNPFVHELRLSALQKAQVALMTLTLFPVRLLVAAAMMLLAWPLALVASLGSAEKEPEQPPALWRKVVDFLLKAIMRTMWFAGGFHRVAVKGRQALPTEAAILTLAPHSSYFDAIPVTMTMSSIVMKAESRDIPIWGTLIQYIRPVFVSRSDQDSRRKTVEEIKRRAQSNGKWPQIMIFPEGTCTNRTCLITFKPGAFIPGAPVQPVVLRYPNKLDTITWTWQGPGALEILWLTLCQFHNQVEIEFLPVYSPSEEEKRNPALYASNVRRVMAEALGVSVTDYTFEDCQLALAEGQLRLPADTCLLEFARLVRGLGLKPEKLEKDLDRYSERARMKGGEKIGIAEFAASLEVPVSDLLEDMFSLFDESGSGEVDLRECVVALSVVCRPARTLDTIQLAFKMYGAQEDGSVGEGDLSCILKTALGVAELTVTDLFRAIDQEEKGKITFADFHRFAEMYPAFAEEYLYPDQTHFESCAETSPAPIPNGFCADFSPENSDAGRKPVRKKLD
UniProt Q92539: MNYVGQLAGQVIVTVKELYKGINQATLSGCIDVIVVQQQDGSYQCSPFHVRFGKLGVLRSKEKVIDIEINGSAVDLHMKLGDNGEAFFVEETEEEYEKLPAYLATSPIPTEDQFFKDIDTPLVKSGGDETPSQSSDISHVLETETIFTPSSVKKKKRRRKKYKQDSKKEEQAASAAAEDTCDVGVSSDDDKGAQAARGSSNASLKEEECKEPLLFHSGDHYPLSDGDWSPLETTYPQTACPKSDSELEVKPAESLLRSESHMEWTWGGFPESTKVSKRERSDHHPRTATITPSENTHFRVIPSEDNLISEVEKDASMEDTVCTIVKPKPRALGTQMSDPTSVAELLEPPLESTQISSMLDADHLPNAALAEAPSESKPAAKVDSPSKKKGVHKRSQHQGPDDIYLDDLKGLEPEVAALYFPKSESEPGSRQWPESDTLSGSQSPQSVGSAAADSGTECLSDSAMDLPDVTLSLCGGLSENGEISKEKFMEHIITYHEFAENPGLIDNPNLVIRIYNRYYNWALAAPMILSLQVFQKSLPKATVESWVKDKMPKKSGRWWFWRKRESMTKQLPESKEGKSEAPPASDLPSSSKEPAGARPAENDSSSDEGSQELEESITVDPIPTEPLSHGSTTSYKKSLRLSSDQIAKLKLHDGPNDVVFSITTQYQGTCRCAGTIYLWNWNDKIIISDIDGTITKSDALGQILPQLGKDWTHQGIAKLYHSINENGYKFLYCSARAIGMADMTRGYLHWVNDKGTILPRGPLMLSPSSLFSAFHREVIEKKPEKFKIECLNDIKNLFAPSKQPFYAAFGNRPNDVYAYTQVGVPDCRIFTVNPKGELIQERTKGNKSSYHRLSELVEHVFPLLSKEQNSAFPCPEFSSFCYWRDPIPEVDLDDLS
UniProt P01130: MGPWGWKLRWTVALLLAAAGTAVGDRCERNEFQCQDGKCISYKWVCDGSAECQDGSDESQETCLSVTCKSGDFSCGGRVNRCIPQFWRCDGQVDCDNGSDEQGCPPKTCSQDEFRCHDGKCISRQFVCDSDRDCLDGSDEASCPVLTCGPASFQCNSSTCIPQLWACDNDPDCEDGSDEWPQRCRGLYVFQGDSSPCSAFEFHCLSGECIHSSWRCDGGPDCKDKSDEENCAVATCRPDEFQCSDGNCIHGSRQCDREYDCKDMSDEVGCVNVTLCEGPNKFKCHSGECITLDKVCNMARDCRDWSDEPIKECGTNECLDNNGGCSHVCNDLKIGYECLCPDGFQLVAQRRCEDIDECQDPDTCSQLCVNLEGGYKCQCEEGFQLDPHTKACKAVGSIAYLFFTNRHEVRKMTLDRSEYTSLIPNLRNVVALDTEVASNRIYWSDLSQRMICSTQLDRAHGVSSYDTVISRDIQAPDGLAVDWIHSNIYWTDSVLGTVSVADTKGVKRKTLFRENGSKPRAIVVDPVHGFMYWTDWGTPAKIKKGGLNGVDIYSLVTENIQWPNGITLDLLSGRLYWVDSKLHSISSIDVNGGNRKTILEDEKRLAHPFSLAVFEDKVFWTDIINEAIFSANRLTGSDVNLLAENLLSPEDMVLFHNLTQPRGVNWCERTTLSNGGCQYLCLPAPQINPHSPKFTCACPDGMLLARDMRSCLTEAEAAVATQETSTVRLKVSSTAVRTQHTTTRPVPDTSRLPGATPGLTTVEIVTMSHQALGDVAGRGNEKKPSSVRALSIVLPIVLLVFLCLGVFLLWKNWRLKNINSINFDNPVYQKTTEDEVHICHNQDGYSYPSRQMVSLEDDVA
UniProt Q1L5Z9: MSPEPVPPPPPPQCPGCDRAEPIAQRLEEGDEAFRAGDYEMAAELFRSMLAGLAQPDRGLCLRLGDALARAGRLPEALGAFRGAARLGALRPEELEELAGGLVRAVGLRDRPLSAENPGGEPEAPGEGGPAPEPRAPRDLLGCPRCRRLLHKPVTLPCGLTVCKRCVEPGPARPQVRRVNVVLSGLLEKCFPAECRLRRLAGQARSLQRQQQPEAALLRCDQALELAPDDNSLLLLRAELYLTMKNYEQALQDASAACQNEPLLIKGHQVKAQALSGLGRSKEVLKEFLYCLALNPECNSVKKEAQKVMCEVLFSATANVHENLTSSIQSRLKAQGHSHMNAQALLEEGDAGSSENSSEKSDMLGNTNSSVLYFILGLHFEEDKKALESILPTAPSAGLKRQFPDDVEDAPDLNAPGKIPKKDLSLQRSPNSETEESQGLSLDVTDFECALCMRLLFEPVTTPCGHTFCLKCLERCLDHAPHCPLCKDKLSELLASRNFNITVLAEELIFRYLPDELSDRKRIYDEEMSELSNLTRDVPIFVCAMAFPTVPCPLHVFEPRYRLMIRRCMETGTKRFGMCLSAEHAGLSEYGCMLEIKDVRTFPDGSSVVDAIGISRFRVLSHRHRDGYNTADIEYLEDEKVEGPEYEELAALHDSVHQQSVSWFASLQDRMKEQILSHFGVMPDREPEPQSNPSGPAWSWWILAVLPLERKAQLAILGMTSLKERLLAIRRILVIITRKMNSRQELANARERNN
UniProt Q92604: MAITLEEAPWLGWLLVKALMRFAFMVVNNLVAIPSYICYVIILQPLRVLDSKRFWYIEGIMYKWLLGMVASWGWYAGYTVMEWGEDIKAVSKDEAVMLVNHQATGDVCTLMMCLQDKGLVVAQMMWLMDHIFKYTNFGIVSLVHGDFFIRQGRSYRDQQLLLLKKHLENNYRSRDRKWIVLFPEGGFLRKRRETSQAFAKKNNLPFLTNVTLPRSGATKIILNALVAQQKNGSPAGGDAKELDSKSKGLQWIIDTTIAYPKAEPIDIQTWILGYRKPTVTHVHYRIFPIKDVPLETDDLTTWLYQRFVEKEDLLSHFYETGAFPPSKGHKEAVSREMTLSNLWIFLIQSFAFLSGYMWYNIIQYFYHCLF
UniProt P80188: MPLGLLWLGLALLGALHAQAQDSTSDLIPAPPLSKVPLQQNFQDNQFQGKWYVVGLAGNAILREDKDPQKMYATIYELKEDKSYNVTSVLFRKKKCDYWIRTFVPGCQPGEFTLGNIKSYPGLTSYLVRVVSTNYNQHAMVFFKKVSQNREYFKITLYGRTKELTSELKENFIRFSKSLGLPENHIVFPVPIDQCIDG
UniProt Q9BRT6: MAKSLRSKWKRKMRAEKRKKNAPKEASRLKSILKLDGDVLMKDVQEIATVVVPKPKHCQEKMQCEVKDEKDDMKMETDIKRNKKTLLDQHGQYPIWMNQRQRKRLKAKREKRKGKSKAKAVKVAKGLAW
UniProt O43766: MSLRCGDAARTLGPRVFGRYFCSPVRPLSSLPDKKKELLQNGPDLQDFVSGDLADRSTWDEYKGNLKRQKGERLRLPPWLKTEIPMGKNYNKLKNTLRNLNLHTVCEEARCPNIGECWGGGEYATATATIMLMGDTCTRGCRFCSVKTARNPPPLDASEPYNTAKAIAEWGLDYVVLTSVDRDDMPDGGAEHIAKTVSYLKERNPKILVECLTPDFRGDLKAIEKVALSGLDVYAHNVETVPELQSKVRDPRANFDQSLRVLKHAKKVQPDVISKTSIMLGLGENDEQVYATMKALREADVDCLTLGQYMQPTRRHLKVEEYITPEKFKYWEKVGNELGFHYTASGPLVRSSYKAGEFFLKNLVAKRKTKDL
UniProt O95777: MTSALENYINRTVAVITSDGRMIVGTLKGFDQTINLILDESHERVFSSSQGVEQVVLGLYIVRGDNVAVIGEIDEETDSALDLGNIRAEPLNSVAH

[1] = compound: Cc1nc(Nc2n[nH]c3c2CN(C(=O)N[C@H](CN(C)C)c2ccccc2)C3(C)C)c2sccc2n1
Method in brief: as §1

[2] = compound: Cc1ncc(-c2ccnc(Nc3ccc(S(C)(=O)=O)cc3)n2)n1C(C)C
Method in brief: as §1

quisinostat = compound: Cn1cc(CNCC2CCN(c3ncc(C(=O)NO)cn3)CC2)c2ccccc21 [quisinostat]
Method in brief: as §1

tipifarnib = compound: Cn1cncc1[C@@](N)(c1ccc(Cl)cc1)c1ccc2c(c1)c(-c1cccc(Cl)c1)cc(=O)n2C [tipifarnib]
Method in brief: as §1

[3] = compound: NC(=O)Nc1cc(-c2cccc(F)c2)sc1C(=O)N[C@H]1CCCNC1
Method in brief: as §1

[4] = compound: NC(=O)c1cnc(N[C@@H]2CCCC[C@@H]2N)nc1Nc1cccc(-n2nccn2)c1
Method in brief: as §1

[5] = compound: NC1(c2ccc(-c3nc4ccn5c(=O)[nH]nc5c4cc3-c3ccccc3)cc2)CCC1
Method in brief: as §1

vorinostat = compound: O=C(CCCCCCC(=O)Nc1ccccc1)NO [vorinostat]
Method in brief: as §1

silmitasertib = compound: O=C(O)c1ccc2c(c1)nc(Nc1cccc(Cl)c1)c1ccncc12 [silmitasertib]
Method in brief: as §1

[6] = compound: O=C1NC(=O)C(c2cnc3ccccn23)=C1c1cn2c3c(cc(F)cc13)CN(C(=O)N1CCCCC1)CC2
Method in brief: as §1

dasatinib = compound: Cc1nc(Nc2ncc(C(=O)Nc3c(C)cccc3Cl)s2)cc(N2CCN(CCO)CC2)n1 [dasatinib]
Method in brief: as §1

[7] = compound: Cn1cc(-c2ccc3c(c2)CCN3C(=O)Cc2cccc(C(F)(F)F)c2)c2c(N)ncnc21
Method in brief: as §1

[8] = compound: NCC(=O)Nc1ccc(-n2nc(C(F)(F)F)cc2-c2ccc3c(ccc4ccccc43)c2)cc1
Method in brief: as §1

entospletinib = compound: c1cn2cc(-c3ccc4cn[nH]c4c3)nc(Nc3ccc(N4CCOCC4)cc3)c2n1 [entospletinib]
Method in brief: as §1

Measured: log2 fold change

LEMD3 (UniProt Q9Y2U8)
inactive: nilotinib -0.021 | [1] -0.085 | [2] 0.062 | quisinostat -0.019 | tipifarnib 0.011 | [3] 0.063 | [4] 0.019 | [5] -0.056 | vorinostat 0.165 | silmitasertib -0.135 | [6] 0.017

LDHA (UniProt F5GZQ4)
inactive: nilotinib 0.024 | [1] -0.086 | [2] 0.23 | tipifarnib 0.003 | [4] -0.207

LPCAT2 (UniProt Q7L5N7)
inactive: nilotinib 0.108 | [1] 0.039 | dasatinib 0.181 | [2] -0.225 | [7] -0.103 | quisinostat -0.252 | tipifarnib -0.079 | [3] 0.231 | [8] 0.007 | [6] -0.121 | entospletinib -0.031

LIN54 (UniProt Q6MZP7)
inactive: nilotinib 0.043 | [1] -0.112 | dasatinib -0.089 | [2] 0.073 | [7] -0.122 | quisinostat -0.018 | tipifarnib -0.083 | [3] 0.075 | [4] 0.001 | [5] 0.075 | [8] 0.053 | vorinostat -0.088 | silmitasertib -0.051 | [6] -0.053 | entospletinib -0.027

LRRC42 (UniProt Q9Y546)
inactive: nilotinib -0.19 | [1] 0.045 | dasatinib -0.116 | [2] 0.043 | [7] -0.051 | quisinostat -0.059 | tipifarnib -0.006 | [3] 0.026 | [5] 0.062 | [8] 0.031 | vorinostat -0.113 | silmitasertib -0.007 | [6] -0.044 | entospletinib -0.125

LATS1 (UniProt O95835)
inactive: nilotinib -0.294 | [1] -0.114 | dasatinib -0.05 | [2] -0.047 | [7] 0.069 | tipifarnib 0.082 | [5] -0.131 | vorinostat -0.242 | silmitasertib 0.156

LRSAM1 (UniProt Q6UWE0)
inactive: nilotinib 0.026 | [1] -0.01 | dasatinib 0.02 | [2] -0.006 | [7] 0.002 | quisinostat -0.013 | tipifarnib 0 | [3] 0.011 | [4] 0.042 | [5] -0.009 | [8] 0.014 | vorinostat -0.047 | silmitasertib 0.006 | [6] 0.017 | entospletinib 0.018

LMF2 (UniProt Q9BU23)
inactive: nilotinib 0.1 | [1] 0 | dasatinib -0.062 | [2] -0.11 | [7] -0.093 | quisinostat 0.037 | tipifarnib -0.099 | [3] -0.001 | [5] -0.054 | [8] 0.008 | vorinostat 0.108 | silmitasertib -0.053 | [6] -0.086 | entospletinib 0.025

LDLRAP1 (UniProt Q5SW96)
inactive: nilotinib 0.03 | [1] 0.013 | dasatinib -0.008 | [2] 0.039 | [7] 0.004 | quisinostat -0.025 | tipifarnib -0.071 | [3] -0.003 | [5] 0.04 | [8] -0.021 | vorinostat -0.18 | silmitasertib -0.045 | [6] 0.059 | entospletinib 0.043

LEG1 (UniProt Q6P5S2)
inactive: nilotinib -0.006 | [1] -0.009 | dasatinib -0.066 | [2] 0.155 | [7] 0.213 | quisinostat -0.474 | tipifarnib 0.245 | [3] -0.024 | [4] -0.05 | [5] -0.022 | vorinostat -0.213 | silmitasertib 0.124 | [6] -0.127 | entospletinib -0.05

Fetched one by one from the entries so far, 2 records:
LRRC42 (UniProt Q9Y546)
inactive: nilotinib -0.19 | [1] 0.045 | dasatinib -0.116 | [2] 0.043 | [7] -0.051 | quisinostat -0.059 | tipifarnib -0.006 | [3] 0.026 | [5] 0.062 | [8] 0.031 | vorinostat -0.113 | silmitasertib -0.007 | [6] -0.044 | entospletinib -0.125

LEG1 (UniProt Q6P5S2)
inactive: nilotinib -0.006 | [1] -0.009 | dasatinib -0.066 | [2] 0.155 | [7] 0.213 | quisinostat -0.474 | tipifarnib 0.245 | [3] -0.024 | [4] -0.05 | [5] -0.022 | vorinostat -0.213 | silmitasertib 0.124 | [6] -0.127 | entospletinib -0.05

The list continues:

LPCAT1 (UniProt Q8NF37)
inactive: nilotinib -0.039 | [1] 0.015 | dasatinib -0.084 | [2] 0.014 | [7] -0.045 | quisinostat 0.016 | tipifarnib 0.046 | [3] 0.008 | [4] 0.053 | [5] 0.033 | [8] -0.011 | vorinostat 0.027 | silmitasertib -0.076 | [6] -0.026 | entospletinib -0.057

LPIN2 (UniProt Q92539)
inactive: nilotinib 0.01 | [1] -0.062 | dasatinib -0.045 | [2] -0.051 | [7] 0 | quisinostat 0.003 | tipifarnib 0.022 | [3] -0.012 | [4] -0.033 | [5] -0.008 | [8] 0.046 | vorinostat -0.123 | silmitasertib -0.016 | [6] 0.01 | entospletinib -0.069

LDLR (UniProt P01130)
inactive: nilotinib 0.031 | [1] -0.009 | dasatinib 0.057 | [2] 0.082 | [7] -0.067 | quisinostat 0.012 | tipifarnib -0.061 | [3] -0.06 | [4] -0.141 | [5] -0.042 | [8] 0.004 | vorinostat 0.052 | silmitasertib -0.029 | [6] -0.007 | entospletinib 0.01

LONRF2 (UniProt Q1L5Z9)
inactive: nilotinib 0.007 | [1] 0.03 | dasatinib -0.18 | [2] 0 | [7] 0.064 | quisinostat -0.083 | tipifarnib -0.059 | [3] -0.095 | [5] -0.07 | vorinostat -0.22 | silmitasertib 0 | [6] 0.077 | entospletinib -0.193

LRCH1 isoform 3 (UniProt Q9Y2L9)
inactive: nilotinib -0.264 | [1] -0.162 | dasatinib 0.044 | [2] 0.03 | [7] -0.1 | tipifarnib 0.014 | [4] -0.127

LBR (UniProt Q14739)
inactive: nilotinib -0.026 | [1] 0.015 | dasatinib -0.04 | [2] -0.004 | [7] 0.003 | quisinostat 0.065 | tipifarnib -0.03 | [3] -0.048 | [4] 0.006 | [5] 0.08 | [8] -0.121 | vorinostat 0.17 | silmitasertib -0.001 | [6] -0.076 | entospletinib -0.009

LPGAT1 (UniProt Q92604)
inactive: nilotinib 0.02 | [1] -0.044 | dasatinib 0.018 | [2] -0.056 | [7] -0.164 | tipifarnib -0.063 | [5] 0.139 | vorinostat -0.058 | silmitasertib -0.003 | entospletinib 0.147

LSM3 (UniProt P62310)
inactive: nilotinib -0.022 | [1] 0.023 | dasatinib 0.041 | [2] 0.001 | [7] -0.049 | quisinostat 0.003 | tipifarnib -0.032 | [3] -0.019 | [4] 0.031 | [5] -0.035 | [8] 0.019 | vorinostat 0.135 | silmitasertib -0.018 | [6] -0.005 | entospletinib -0.061

LCN2 (UniProt P80188)
inactive: nilotinib 0.227 | [1] -0.074 | [2] 0.358 | tipifarnib -0.405 | [4] 0.22 | [5] 0.288 | [8] -0.127 | vorinostat 0.35 | silmitasertib -0.272

LLPH (UniProt Q9BRT6)
inactive: nilotinib 0.014 | [1] 0.025 | dasatinib -0.038 | [2] -0.006 | [7] 0.104 | quisinostat 0.146 | tipifarnib 0.032 | [3] 0.02 | [4] 0 | [5] -0.057 | [8] -0.06 | vorinostat 0.18 | silmitasertib -0.016 | [6] -0.039 | entospletinib -0.044

LIAS (UniProt O43766)
inactive: nilotinib 0 | [1] -0.009 | dasatinib -0.033 | [2] 0.041 | [7] 0.025 | quisinostat 0.016 | tipifarnib -0.011 | [3] 0.002 | [4] -0.029 | [5] -0.047 | [8] 0.026 | vorinostat 0.152 | silmitasertib 0.024 | [6] -0.006 | entospletinib 0.036

LSM8 (UniProt O95777)
inactive: nilotinib 0.132 | [1] 0 | dasatinib 0.012 | [2] 0.045 | [7] 0.004 | quisinostat -0.043 | tipifarnib 0.048 | [3] -0.02 | [4] -0.035 | [5] 0.033 | [8] -0.052 | vorinostat 0.063 | silmitasertib -0.011 | [6] 0.009 | entospletinib 0.028

— the supplement of paper PMC10849652
